Literature values, collected in patent US20030083227A1, “Novel combination therapy to treat glaucoma” (priority 1999, published 2003).

Tested on: pupillary size
Details: 1%, unilateral topical application; cited from earlier work

Structure (SMILES): CC[C@@H]1C(=O)OC[C@@H]1Cc1cncn1C [pilocarpine]
- effect on pupillary size in the contralateral eye: does not alter
